Data on 20 targets can be found in the supplement of paper PMC11732987, “Enantioselective OTUD7B fragment discovery through chemoproteomics screening and high-throughput optimisation” (Communications Chemistry, 2025).

Chains of the proteins cited; added tags and fusions are not shown. Lines headed by an entry give the natural chain unless they say otherwise; changes in a name come on top. Residues count along the entry.
UniProt Q9BWD1, 342-361: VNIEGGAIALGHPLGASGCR
UniProt Q6ULP2: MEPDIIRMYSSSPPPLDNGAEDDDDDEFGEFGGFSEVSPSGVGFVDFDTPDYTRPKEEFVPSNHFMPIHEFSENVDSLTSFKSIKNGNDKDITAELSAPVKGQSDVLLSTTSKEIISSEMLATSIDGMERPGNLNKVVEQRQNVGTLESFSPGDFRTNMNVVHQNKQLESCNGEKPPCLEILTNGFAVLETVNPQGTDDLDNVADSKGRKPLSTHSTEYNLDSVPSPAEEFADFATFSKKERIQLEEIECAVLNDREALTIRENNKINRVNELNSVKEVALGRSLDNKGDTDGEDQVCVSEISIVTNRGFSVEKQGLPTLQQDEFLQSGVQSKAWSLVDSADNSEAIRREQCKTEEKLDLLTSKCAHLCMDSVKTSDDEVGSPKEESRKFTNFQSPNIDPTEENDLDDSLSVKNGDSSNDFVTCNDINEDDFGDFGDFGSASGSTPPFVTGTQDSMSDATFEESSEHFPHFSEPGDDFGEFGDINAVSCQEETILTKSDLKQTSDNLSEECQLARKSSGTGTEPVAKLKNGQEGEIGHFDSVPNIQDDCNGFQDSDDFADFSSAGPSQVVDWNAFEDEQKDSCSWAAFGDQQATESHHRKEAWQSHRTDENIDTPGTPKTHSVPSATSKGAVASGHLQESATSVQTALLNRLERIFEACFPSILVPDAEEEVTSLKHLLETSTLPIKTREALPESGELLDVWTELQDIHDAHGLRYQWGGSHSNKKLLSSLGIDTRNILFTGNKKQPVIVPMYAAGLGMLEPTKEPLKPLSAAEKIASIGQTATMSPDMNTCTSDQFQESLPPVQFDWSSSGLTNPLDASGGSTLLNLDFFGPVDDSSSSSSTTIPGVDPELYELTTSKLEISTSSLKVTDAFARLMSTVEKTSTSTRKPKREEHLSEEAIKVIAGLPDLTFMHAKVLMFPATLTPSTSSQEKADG
UniProt P78536: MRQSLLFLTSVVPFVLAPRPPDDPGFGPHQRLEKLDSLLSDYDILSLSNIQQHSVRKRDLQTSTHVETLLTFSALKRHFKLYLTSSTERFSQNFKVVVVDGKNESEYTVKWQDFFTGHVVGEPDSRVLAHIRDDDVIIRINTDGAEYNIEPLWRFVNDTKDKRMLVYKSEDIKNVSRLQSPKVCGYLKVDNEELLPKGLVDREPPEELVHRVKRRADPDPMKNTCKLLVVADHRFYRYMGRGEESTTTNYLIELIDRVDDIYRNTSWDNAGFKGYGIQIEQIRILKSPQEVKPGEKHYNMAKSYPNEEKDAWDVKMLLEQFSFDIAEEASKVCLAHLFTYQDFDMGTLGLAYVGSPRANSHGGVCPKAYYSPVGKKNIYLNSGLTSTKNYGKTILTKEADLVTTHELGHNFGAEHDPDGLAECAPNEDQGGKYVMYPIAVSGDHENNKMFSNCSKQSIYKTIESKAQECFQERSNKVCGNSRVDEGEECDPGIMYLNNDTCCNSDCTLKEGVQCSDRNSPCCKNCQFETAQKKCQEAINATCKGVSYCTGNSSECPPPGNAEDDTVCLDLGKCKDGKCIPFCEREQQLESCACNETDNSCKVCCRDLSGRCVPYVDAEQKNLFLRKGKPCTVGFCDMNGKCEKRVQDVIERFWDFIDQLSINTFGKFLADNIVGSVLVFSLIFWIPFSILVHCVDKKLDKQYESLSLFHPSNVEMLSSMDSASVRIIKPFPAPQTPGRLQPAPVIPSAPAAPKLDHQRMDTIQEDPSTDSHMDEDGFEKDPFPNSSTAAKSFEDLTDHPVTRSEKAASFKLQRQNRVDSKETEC
UniProt Q9Y305: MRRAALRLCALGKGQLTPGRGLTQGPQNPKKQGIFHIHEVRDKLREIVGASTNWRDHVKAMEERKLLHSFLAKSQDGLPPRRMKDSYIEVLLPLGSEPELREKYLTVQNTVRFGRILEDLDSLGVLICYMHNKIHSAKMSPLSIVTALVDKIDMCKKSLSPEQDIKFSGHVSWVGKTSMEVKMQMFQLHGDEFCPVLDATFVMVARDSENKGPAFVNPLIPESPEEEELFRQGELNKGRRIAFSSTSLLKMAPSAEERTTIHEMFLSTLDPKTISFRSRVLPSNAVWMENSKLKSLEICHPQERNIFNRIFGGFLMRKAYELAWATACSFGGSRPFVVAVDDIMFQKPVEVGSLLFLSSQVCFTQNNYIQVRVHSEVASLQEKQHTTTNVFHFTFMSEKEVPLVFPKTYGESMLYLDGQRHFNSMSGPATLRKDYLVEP
UniProt O60503: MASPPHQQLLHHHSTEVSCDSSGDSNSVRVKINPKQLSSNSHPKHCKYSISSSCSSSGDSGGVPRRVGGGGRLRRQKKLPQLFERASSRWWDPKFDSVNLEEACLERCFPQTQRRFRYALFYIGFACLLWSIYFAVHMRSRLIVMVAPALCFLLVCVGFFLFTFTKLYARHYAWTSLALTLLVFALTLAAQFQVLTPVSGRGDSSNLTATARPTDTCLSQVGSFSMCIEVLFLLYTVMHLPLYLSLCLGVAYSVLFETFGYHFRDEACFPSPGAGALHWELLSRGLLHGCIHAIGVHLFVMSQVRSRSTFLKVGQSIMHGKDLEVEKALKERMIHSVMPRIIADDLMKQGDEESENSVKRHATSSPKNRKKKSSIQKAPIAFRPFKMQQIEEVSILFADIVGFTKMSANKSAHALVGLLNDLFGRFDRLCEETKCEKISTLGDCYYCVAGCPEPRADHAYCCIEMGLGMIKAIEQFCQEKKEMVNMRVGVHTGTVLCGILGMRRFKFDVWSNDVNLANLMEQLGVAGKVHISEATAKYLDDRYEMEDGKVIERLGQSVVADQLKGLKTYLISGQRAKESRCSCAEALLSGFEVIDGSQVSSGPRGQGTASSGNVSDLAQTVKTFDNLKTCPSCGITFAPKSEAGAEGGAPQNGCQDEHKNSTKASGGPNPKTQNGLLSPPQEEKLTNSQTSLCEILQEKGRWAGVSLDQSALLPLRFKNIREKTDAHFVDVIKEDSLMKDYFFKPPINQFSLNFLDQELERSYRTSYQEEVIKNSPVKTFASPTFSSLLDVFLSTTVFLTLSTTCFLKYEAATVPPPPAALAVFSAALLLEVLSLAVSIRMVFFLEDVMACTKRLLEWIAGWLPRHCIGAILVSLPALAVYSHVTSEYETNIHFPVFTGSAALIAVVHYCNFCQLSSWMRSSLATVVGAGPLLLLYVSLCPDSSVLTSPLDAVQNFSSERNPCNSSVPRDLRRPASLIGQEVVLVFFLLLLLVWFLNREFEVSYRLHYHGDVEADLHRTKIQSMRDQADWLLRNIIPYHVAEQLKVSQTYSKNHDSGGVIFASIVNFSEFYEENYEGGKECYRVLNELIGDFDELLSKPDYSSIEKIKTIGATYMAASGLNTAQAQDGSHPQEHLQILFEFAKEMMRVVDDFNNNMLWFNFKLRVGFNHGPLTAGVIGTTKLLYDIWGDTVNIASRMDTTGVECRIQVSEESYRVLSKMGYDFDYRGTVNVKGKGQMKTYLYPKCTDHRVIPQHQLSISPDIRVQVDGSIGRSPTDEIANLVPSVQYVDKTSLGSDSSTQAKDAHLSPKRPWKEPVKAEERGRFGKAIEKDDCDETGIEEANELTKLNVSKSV
UniProt Q9NRZ5, 257-276: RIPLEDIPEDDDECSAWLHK
UniProt Q02952: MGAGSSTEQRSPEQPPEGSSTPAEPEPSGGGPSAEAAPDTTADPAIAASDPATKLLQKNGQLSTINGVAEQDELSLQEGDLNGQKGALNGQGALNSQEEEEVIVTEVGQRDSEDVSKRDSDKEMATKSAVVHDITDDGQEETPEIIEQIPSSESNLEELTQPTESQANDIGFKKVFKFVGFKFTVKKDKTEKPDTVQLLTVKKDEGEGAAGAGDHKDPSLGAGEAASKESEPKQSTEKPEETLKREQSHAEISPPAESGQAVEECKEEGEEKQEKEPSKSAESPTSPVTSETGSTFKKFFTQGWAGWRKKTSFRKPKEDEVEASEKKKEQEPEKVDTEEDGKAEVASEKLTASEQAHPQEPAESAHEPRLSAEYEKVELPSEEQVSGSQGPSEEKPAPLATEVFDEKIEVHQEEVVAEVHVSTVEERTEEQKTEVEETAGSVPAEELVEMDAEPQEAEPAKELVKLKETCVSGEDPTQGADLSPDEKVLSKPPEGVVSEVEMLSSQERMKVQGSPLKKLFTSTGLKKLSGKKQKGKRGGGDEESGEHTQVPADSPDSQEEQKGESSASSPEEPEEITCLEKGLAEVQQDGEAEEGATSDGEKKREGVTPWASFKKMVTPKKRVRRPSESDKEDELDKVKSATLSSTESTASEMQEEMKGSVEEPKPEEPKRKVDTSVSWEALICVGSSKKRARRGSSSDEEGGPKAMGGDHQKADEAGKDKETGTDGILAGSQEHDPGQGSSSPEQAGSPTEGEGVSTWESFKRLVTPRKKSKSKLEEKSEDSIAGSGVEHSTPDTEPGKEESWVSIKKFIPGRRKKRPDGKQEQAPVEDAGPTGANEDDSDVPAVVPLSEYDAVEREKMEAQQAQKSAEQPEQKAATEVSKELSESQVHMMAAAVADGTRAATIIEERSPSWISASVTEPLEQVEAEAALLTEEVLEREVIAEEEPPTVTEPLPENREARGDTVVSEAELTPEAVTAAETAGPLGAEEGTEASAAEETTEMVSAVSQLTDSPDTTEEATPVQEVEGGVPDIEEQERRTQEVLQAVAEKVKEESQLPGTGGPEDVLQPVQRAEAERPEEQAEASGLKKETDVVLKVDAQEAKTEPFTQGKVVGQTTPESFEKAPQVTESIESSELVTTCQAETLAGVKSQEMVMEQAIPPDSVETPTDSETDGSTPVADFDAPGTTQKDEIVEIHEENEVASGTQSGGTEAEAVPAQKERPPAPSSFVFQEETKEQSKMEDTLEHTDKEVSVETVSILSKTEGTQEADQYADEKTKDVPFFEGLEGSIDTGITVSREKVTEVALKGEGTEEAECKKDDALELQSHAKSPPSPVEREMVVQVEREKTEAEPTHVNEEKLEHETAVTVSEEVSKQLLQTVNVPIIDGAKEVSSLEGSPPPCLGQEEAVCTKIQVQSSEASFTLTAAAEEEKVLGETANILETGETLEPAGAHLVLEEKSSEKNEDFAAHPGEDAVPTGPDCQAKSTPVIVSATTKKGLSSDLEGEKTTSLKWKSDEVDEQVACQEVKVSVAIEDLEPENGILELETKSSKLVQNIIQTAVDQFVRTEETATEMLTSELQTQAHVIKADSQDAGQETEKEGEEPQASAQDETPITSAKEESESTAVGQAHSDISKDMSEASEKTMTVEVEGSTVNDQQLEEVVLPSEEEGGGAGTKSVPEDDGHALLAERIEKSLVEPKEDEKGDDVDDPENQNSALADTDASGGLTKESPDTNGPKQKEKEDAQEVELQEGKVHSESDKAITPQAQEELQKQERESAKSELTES
UniProt P52594: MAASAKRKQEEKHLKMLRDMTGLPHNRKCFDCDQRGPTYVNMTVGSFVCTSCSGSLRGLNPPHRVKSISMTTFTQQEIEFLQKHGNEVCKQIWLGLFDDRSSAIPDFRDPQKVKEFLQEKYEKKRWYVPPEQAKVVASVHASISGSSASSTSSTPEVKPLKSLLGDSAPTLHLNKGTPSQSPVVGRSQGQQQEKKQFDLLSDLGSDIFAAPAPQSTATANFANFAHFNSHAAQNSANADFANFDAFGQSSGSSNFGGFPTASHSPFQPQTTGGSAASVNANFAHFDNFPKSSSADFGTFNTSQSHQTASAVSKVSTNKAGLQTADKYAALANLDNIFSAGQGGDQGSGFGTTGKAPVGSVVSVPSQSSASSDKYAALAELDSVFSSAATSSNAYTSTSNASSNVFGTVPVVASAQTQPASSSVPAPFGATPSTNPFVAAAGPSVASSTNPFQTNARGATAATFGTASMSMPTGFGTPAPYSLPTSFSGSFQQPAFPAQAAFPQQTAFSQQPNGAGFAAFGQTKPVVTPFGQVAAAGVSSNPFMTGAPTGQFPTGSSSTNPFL
UniProt P31751: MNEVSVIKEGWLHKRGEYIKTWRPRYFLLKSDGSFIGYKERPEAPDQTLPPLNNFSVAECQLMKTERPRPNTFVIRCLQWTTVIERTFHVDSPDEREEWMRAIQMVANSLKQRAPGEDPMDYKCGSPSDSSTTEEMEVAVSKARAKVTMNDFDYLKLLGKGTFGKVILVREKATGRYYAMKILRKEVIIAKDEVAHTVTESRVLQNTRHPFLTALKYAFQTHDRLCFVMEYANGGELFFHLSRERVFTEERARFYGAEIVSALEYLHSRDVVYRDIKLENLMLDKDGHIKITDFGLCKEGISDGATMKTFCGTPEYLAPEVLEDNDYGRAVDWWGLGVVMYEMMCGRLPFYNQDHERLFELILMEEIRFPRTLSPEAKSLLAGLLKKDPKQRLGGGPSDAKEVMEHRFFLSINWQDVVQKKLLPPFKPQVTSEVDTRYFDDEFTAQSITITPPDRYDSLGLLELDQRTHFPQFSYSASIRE

Some of the results follow. The data scatter; read single values as rough.

Compound in the first assay: ClCC(=O)N[C@H]1CCCc2ccccc12
In words: log2 mean competition ratio of IA-DTB cysteine labelling (DMSO/compound) (log2 ratio); higher = stronger cysteine engagement by compound. The note with it: 50 µM; treatment time: 4 h; cell line lysate: HEK293T. The procedure:
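IA-DTB competitive cysteine chemoproteomics in HEK293T RIPA lysate. Lysates were treated with compound 29 or 30 at 50 or 200 µM for 4 h, then IA-DTB (500 µM, 1 h), trypsin-digested, NeutrAvidin-enriched and analysed by diaPASEF. Competition ratio = intensity DMSO / intensity compound (n=4 treated, n=64 DMSO); binding: mean log2 CR ≥ 1 and p ≤ 0.05 plus QC filters. Target is the cysteine site.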
Take ADAL C10 (UniProt Q6DHV7): the “log2 mean competition ratio” value is -0.074.

Consider ACAT2 C360 (UniProt Q9BWD1), for which the “log2 mean competition ratio” value was 0.164.

On to AFTPH C511 (UniProt Q6ULP2), for which the “log2 mean competition ratio” value was -0.17.

As to AMDHD2 C338 (UniProt Q9Y303), the “log2 mean competition ratio” value was -0.538.

With AIMP2 C168 (UniProt Q13155), the “log2 mean competition ratio” value was -0.321.

For ADAM17 C365 (UniProt P78536), the “log2 mean competition ratio” value was -0.103.

With ACOT9 C299 (UniProt Q9Y305), the “log2 mean competition ratio” value was -0.099.

As for ALS2 C1376 (UniProt Q96Q42), the “log2 mean competition ratio” value is -0.368.

As for ADCY9 C693 (UniProt O60503), the “log2 mean competition ratio” value is -0.349.

With AHCTF1 C354 (UniProt Q8WYP5), the “log2 mean competition ratio” value was determined as 0.954.

Take ANK2 C1425 (UniProt Q01484): the “log2 mean competition ratio” value is -0.0961.

AGPAT4 C270 (UniProt Q9NRZ5): the “log2 mean competition ratio” value worked out at 1.03.

For the target AKAP12 C1314 (UniProt Q02952), the “log2 mean competition ratio” value was -0.416.

Regarding AKAP12 C1521 (UniProt Q02952), the “log2 mean competition ratio” value is -0.582.

Take AGFG1 C89 (UniProt P52594): the “log2 mean competition ratio” value is -0.374.

As for AFG3L2 C313 (UniProt Q9Y4W6), the “log2 mean competition ratio” value was -0.197.

Turning to AKT2 C297 (UniProt P31751), the “log2 mean competition ratio” value is 0.519.

As to ACTA2 C219, the “log2 mean competition ratio” value is 0.644.

With ADAR C622 (UniProt P55265), the “log2 mean competition ratio” value is 0.113.

ACSS3 C498 (UniProt Q9H6R3): the “log2 mean competition ratio” value amounted to 0.464.

Staying with this assay, now noted: 200 µM; treatment time: 4 h; cell line lysate: HEK293T.
For ADAL C10 (UniProt Q6DHV7), the “log2 mean competition ratio” value turned out to be 0.326.

ACAT2 C360 (UniProt Q9BWD1): the “log2 mean competition ratio” value is -0.166.

For AFTPH C511 (UniProt Q6ULP2), the “log2 mean competition ratio” value was determined as 0.0722.

For the target AMDHD2 C338 (UniProt Q9Y303), the “log2 mean competition ratio” value was -0.108.

With AIMP2 C168 (UniProt Q13155), the “log2 mean competition ratio” value was determined as 0.215.

Take ADAM17 C365 (UniProt P78536): the “log2 mean competition ratio” value was -0.00496.

As for ACOT9 C299 (UniProt Q9Y305), the “log2 mean competition ratio” value is 0.0194.

Regarding ALS2 C1376 (UniProt Q96Q42), the “log2 mean competition ratio” value is -0.148.

Take ADCY9 C693 (UniProt O60503): the “log2 mean competition ratio” value turned out to be 0.591.

As for AHCTF1 C354 (UniProt Q8WYP5), the “log2 mean competition ratio” value was found to be 0.128.

Consider ANK2 C1425 (UniProt Q01484), for which the “log2 mean competition ratio” value amounted to 0.153.

Consider AGPAT4 C270 (UniProt Q9NRZ5), for which the “log2 mean competition ratio” value was -0.139.

Turning to AKAP12 C1314 (UniProt Q02952), the “log2 mean competition ratio” value came out at 0.143.

With AKAP12 C1521 (UniProt Q02952), the “log2 mean competition ratio” value is -0.0507.

For the target AGFG1 C89 (UniProt P52594), the “log2 mean competition ratio” value was -0.136.

Consider AFG3L2 C313 (UniProt Q9Y4W6), for which the “log2 mean competition ratio” value stood at 0.0394.

Consider AKT2 C297 (UniProt P31751), for which the “log2 mean competition ratio” value is 0.646.

Turning to ACTA2 C219, the “log2 mean competition ratio” value is -0.12.

For ADAR C622 (UniProt P55265), the “log2 mean competition ratio” value amounted to 0.272.

Consider ACSS3 C498 (UniProt Q9H6R3), for which the “log2 mean competition ratio” value was -0.0386.
